Tested on: HLA molecules of primary tumor samples
Experiment: Identification of tumor associated peptides presented on the cell surface (HLA immune precipitation, LC-MS)
Design: species or system human
Conditions: for Peptide Presentation on cancer entities: entities on which the peptide was presented, CLL = chronic lymphocytic leukemia, AML = acute myeloid leukemia, CML = Chronic myeloid leukemia; for Peptide Presentation on tumor types: tumor entities on which the peptide was found presented (Table 8b)

Substance	Peptide Presentation on cancer entities	Peptide Presentation on tumor types
227 (APINKAGSFL; listed as Homo sapiens) [compound 227]	CLL	MEL, NHL, OC
228 (SPRITFPSL; listed as Homo sapiens) [compound 228]	CLL	
229 (SPLGSLARSSL; listed as Homo sapiens) [compound 229]	CLL	GBC, NHL, OC, OSCAR
230 (KPMKSVLVV; listed as Homo sapiens) [compound 230]	CLL	BRCA, GC, NHL, NSCLCadeno, OC, OSCAR, UBC
231 (MPLSTIREV; listed as Homo sapiens) [compound 231]	AML, CML	BRCA, CRC, GBC, GBM, GC, HCC, HNSCC, MEL, NHL, NSCLCadeno, NSCLCsquam, OC, OSCAR, PACA, PRCA, RCC, SCLC, UBC, UEC
232 (APRPAGSYL; listed as Homo sapiens) [compound 232]	CLL	BRCA, CCC, CRC, GBC, GBM, GC, HCC, HNSCC, MEL, NHL, NSCLCadeno, NSCLCother, NSCLCsquam, OC, OSCAR, PACA, PRCA, RCC, SCLC, UBC, UEC
233 (SPRVYWLGL; listed as Homo sapiens) [compound 233]	CLL	NHL
234 (SPKESENAL; listed as Homo sapiens) [compound 234]	CLL	NHL, NSCLCsquam
235 (SPSLPSRTL; listed as Homo sapiens) [compound 235]	CLL	
236 (RPSNKAPLL; listed as Homo sapiens) [compound 236]	CLL	
237 (SPWLHAPSL; listed as Homo sapiens) [compound 237]	CLL	GBC, NHL, NSCLCadeno, OC
238 (SPRSWIQVQI; listed as Homo sapiens) [compound 238]	CLL	BRCA, CRC, GBC, HNSCC, MEL, NHL, NSCLCadeno, NSCLCother, NSCLCsquam, OC, OSCAR, PACA, RCC, SCLC, UEC
239 (APSKTSLIM; listed as Homo sapiens) [compound 239]	CLL	BRCA, CCC, CRC, GBC, GBM, GC, HCC, HNSCC, MEL, NHL, NSCLCadeno, NSCLCother, NSCLCsquam, OC, OSCAR, PACA, PRCA, RCC, SCLC, UBC, UEC
240 (SPSLPNITL; listed as Homo sapiens) [compound 240]	CLL	BRCA, CCC, CRC, GBC, GBM, GC, HCC, HNSCC, MEL, NHL, NSCLCadeno, NSCLCother, NSCLCsquam, OC, OSCAR, PACA, PRCA, RCC, SCLC, UBC, UEC
241 (APAPAEKTPV; listed as Homo sapiens) [compound 241]	CLL	BRCA, CRC, GBC, GBM, GC, HNSCC, MEL, NHL, NSCLCadeno, NSCLCsquam, OC, OSCAR, PACA, PRCA, SCLC, UBC, UEC
242 (SPFSFHHVL; listed as Homo sapiens) [compound 242]	CLL	BRCA, CCC, CRC, GBC, GBM, GC, HCC, HNSCC, MEL, NHL, NSCLCadeno, NSCLCother, NSCLCsquam, OC, OSCAR, PACA, PRCA, RCC, SCLC, UBC, UEC
243 (LPKVQSIQL; listed as Homo sapiens) [compound 243]	CLL	CCC, HCC, NSCLCadeno, NSCLCsquam, OC, OSCAR, RCC

Substance	Peptide Presentation on cancer entities	Peptide Presentation on tumor types
244 (MPSSDTTVTF; listed as Homo sapiens) [compound 244]	CLL	BRCA, CCC, CRC, GBC, GBM, GC, HCC, HNSCC, MEL, NHL, NSCLCadeno, NSCLCother, NSCLCsquam, OC, OSCAR, PACA, PRCA, RCC, SCLC, UBC, UEC
245 (SPLSHHSQL; listed as Homo sapiens) [compound 245]	CLL	GC, NHL, NSCLCadeno, NSCLCother, NSCLCsquam, OC, OSCAR
246 (YPGWHSTTI; listed as Homo sapiens) [compound 246]	AML	CRC, HNSCC, NHL
247 (QPSPARAPAEL; listed as Homo sapiens) [compound 247]	CLL	GBC, NHL, NSCLCadeno, NSCLCsquam, OSCAR, SCLC
248 (LPYDSKHQI; listed as Homo sapiens) [compound 248]	CLL	BRCA, CRC, GBC, GBM, GC, HNSCC, MEL, NHL, NSCLCadeno, NSCLCother, NSCLCsquam, OC, OSCAR, PACA, PRCA, RCC, SCLC, UBC, UEC
249 (SPADHRGYASL; listed as Homo sapiens) [compound 249]	AML	BRCA, CRC, GBC, HCC, HNSCC, MEL, NSCLCadeno, NSCLCother, NSCLCsquam, OC, OSCAR, RCC, SCLC, UBC, UEC
250 (VPNLQTVSV; listed as Homo sapiens) [compound 250]	CLL	BRCA, CCC, CRC, GBC, GC, HCC, HNSCC, MEL, NHL, NSCLCadeno, NSCLCsquam, OC, OSCAR, PACA, PRCA, RCC, SCLC, UBC, UEC
251 (QPRLFTMDL; listed as Homo sapiens) [compound 251]	CLL	BRCA, CRC, GBC, GC, HCC, HNSCC, MEL, NHL, NSCLCadeno, NSCLCother, NSCLCsquam, OC, OSCAR, PACA, RCC, SCLC, UEC
252 (RPHIPISKL; listed as Homo sapiens) [compound 252]	CLL	BRCA, CRC, GBC, GBM, HCC, HNSCC, MEL, NHL, NSCLCadeno, NSCLCother, NSCLCsquam, OC, OSCAR, PACA, RCC, SCLC, UBC, UEC
253 (RPFADLLGTAF; listed as Homo sapiens) [compound 253]	CLL	BRCA, GBC, GC, HCC, HNSCC, MEL, NHL, NSCLCadeno, NSCLCsquam, OC, OSCAR, PACA, SCLC, UBC, UEC
254 (SPRNLQPQRAAL; listed as Homo sapiens) [compound 254]	CLL	CRC, GBC, HCC, HNSCC, MEL, NHL, NSCLCadeno, NSCLCsquam, OSCAR, PACA, RCC, SCLC, UBC
255 (YPGSDRIML; listed as Homo sapiens) [compound 255]	CLL	MEL, NHL, NSCLCadeno
256 (SPYKKLKEAL; listed as Homo sapiens) [compound 256]	CLL	BRCA, MEL, NHL, NSCLCadeno, NSCLCother, NSCLCsquam, OSCAR, PRCA, RCC, SCLC, UBC
257 (KEFFFVKVF; listed as Homo sapiens) [compound 257]	CLL	BRCA, CRC, GC, HCC, HNSCC, MEL, NHL, NSCLCadeno, NSCLCsquam, OSCAR, PACA, RCC, SCLC, UBC, UEC
258 (EELFRDGVNW; listed as Homo sapiens) [compound 258]	CLL	CCC, CRC, HCC, MEL, NHL, NSCLCadeno, NSCLCsquam, PACA, PRCA, UEC
259 (EENTLVQNY; listed as Homo sapiens) [compound 259]	CLL	BRCA, CRC, HCC, HNSCC, MEL, NHL, NSCLCadeno, NSCLCother, NSCLCsquam, OC, OSCAR, PACA, PRCA, SCLC, UBC, UEC
260 (AEIGEGAYGKVF; listed as Homo sapiens) [compound 260]	AML	BRCA, CCC, CRC, GBM, HCC, HNSCC, MEL, NHL, NSCLCadeno, NSCLCother, NSCLCsquam, OC, OSCAR, PACA, PRCA, UBC, UEC
